The other results are listed elsewhere or left out.

Protein sequences, listed by entry. Tags and fused reporters are not part of them. Lines headed by an entry give the natural chain unless they say otherwise; changes in a name come on top.
UniProt Q9UL63, whole entry: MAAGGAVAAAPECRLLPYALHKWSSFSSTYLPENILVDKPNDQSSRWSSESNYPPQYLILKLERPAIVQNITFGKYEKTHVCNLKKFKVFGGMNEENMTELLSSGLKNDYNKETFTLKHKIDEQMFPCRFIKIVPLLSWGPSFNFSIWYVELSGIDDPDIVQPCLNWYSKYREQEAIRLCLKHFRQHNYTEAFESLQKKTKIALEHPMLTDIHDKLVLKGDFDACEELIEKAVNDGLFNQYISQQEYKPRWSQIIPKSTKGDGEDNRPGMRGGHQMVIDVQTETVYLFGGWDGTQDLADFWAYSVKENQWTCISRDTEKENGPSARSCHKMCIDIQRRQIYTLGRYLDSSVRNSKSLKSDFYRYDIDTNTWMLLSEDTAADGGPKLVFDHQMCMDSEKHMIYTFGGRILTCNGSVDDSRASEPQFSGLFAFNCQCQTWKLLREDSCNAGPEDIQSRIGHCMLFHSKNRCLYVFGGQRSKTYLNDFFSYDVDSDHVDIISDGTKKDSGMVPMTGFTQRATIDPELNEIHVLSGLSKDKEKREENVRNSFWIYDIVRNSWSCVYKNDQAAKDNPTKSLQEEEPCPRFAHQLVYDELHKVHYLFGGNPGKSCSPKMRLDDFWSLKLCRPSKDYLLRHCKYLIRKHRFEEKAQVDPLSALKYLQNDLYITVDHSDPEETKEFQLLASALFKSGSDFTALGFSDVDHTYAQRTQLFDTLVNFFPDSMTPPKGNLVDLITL
UniProt P43243: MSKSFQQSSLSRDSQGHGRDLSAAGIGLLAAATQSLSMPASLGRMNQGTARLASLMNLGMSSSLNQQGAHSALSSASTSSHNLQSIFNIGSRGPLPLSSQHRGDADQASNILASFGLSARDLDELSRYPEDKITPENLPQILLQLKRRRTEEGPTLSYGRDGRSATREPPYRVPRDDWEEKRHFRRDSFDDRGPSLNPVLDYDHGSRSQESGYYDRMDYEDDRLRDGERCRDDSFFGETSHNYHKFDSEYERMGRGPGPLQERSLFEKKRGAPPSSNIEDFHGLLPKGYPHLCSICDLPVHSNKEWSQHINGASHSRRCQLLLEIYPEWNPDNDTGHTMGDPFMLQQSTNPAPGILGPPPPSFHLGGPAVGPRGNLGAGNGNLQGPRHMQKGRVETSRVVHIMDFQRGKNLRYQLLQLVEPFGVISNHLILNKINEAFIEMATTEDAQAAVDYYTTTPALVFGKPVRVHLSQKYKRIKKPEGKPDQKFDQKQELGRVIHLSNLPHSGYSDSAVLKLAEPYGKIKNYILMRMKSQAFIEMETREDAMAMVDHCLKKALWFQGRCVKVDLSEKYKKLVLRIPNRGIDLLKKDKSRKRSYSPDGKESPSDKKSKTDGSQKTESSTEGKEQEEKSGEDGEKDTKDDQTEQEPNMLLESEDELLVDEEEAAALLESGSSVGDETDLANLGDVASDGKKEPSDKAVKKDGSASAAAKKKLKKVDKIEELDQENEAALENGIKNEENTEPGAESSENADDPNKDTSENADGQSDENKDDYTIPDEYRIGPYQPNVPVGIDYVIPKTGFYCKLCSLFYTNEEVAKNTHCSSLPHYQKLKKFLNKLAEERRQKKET
UniProt P45983: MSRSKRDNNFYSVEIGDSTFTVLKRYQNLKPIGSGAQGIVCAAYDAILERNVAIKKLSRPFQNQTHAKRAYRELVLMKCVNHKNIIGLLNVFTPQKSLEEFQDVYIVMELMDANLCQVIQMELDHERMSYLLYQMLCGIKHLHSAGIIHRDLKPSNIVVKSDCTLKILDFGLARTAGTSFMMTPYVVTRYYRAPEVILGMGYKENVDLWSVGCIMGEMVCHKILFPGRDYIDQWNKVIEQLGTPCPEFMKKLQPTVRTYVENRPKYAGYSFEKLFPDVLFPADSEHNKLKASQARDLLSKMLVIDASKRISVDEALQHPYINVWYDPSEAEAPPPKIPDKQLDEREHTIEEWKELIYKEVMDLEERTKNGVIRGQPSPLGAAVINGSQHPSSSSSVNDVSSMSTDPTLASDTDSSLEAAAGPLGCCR
UniProt Q03164, whole entry: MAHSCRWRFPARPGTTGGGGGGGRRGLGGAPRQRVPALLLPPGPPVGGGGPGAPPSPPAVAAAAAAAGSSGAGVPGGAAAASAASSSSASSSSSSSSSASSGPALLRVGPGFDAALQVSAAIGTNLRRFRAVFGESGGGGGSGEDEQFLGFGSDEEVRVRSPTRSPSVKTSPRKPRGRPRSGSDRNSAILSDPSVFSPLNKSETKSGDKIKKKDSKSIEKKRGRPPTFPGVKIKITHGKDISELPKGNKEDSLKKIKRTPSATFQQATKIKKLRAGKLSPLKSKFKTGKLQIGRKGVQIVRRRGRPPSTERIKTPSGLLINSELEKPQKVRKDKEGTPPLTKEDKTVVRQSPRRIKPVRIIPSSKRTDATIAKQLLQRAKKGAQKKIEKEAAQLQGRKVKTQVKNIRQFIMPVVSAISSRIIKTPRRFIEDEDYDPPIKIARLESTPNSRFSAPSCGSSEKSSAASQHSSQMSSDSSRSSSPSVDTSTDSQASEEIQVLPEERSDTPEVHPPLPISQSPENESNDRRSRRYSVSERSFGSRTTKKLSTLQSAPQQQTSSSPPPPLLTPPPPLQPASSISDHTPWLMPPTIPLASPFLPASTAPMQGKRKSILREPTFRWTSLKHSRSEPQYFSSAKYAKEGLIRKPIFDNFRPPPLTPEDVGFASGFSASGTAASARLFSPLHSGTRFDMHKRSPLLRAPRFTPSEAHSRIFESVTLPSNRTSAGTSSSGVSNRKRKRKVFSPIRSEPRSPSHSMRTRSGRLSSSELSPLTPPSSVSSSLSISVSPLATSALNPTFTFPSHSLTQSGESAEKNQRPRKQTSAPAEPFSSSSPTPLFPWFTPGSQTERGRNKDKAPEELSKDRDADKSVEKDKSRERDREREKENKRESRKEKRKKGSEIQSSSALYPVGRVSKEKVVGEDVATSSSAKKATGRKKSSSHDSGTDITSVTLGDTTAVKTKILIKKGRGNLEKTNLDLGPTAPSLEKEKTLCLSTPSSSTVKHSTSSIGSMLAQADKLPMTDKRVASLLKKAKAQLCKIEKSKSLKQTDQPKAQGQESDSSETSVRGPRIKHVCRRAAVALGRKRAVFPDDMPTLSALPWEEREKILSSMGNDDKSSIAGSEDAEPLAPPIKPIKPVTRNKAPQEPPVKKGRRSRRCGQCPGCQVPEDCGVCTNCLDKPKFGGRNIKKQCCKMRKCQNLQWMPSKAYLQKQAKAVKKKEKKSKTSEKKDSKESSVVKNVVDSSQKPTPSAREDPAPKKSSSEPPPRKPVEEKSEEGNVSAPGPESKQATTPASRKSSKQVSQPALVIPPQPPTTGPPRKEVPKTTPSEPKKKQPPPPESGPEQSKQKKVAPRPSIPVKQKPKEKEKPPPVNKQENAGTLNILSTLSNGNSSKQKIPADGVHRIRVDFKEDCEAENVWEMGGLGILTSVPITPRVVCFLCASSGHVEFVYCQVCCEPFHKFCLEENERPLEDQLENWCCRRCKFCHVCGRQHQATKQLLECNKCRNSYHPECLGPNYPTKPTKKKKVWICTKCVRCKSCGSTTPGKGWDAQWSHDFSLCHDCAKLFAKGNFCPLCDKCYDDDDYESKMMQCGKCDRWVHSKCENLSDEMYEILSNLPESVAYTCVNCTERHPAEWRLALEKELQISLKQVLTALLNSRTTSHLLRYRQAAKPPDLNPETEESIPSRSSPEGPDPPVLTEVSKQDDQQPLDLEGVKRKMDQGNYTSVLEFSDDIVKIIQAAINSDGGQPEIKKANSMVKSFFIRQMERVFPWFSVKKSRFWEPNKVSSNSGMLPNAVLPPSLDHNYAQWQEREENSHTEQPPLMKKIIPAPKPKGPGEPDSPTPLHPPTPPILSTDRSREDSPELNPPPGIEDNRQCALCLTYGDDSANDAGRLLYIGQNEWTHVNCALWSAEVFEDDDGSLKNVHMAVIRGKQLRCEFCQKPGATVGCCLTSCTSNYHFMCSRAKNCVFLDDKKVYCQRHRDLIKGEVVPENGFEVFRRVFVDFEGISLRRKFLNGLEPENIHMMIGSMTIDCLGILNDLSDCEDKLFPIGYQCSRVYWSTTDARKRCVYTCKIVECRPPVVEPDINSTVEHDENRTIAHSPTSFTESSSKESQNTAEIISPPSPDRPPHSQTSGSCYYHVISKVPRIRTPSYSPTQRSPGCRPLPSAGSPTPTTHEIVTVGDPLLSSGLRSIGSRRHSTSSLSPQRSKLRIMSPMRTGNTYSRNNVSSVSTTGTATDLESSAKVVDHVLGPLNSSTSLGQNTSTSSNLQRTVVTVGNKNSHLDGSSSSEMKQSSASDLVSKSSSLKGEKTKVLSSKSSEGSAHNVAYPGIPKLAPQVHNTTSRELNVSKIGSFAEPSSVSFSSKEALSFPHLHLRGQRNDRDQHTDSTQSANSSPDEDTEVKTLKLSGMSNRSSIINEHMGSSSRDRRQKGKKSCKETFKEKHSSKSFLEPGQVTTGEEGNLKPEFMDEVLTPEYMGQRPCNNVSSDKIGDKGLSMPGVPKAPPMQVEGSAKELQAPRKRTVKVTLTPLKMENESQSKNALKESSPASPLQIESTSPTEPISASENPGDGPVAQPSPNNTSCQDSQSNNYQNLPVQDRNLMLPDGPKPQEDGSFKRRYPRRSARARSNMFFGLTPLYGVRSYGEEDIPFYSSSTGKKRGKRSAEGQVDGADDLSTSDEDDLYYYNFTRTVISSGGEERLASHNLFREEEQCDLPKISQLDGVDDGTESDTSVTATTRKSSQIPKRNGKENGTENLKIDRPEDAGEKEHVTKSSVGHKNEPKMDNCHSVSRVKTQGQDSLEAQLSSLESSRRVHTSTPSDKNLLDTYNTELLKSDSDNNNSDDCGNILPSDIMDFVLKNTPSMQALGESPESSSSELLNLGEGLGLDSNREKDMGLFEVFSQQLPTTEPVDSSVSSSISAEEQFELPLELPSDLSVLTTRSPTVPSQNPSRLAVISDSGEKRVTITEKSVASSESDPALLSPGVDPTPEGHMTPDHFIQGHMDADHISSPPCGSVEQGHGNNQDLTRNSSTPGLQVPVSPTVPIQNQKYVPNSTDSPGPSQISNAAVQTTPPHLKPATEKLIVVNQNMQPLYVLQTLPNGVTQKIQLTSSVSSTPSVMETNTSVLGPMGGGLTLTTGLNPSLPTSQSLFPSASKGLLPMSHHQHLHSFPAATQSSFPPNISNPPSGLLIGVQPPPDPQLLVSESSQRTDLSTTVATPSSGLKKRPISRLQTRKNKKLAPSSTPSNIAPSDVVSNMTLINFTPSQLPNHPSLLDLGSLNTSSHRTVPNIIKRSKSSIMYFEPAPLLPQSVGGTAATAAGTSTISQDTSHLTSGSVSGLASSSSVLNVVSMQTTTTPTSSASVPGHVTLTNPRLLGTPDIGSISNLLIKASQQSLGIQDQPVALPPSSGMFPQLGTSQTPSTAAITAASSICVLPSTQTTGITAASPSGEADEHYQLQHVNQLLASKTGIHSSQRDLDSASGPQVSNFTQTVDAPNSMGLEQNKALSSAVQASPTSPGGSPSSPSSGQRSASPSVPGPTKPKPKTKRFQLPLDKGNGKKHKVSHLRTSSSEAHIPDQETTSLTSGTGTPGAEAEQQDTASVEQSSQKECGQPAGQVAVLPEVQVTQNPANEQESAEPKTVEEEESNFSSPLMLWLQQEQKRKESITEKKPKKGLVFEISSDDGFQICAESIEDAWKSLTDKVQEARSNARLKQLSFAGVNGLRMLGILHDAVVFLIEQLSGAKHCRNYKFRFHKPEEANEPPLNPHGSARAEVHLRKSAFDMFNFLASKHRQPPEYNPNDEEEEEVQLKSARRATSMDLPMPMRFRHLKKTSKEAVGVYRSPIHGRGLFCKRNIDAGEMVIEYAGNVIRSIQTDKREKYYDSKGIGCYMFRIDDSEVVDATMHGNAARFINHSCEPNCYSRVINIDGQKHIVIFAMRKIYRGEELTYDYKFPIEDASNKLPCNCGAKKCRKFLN
UniProt Q15750: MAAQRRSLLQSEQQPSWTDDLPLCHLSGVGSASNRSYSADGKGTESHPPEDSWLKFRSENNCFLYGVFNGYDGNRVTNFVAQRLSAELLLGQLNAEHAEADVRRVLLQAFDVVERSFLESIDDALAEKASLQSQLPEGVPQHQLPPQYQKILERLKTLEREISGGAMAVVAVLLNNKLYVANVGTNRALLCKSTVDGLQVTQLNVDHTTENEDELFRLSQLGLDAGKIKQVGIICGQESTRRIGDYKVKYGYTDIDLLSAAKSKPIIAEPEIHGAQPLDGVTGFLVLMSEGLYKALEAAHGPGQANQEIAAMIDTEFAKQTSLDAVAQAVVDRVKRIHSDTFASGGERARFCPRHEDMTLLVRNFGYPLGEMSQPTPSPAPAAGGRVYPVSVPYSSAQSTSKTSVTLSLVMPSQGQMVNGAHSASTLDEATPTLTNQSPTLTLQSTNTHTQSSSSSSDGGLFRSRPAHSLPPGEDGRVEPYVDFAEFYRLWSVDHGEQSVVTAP

Compound in this assay: COc1ccc(Cn2ccc3ccc(C(=O)NO)cc32)cc1
The assay can be described thus: dose-dependent thermal stabilisation call (2D-TPP, DLPTP, 10% FDR) (binary (1 = stabilised)); higher = stabilised by the compound. As to conditions: system: HL-60 intact cells; concentration range 0.04-10 µM.
As to MCART1 (UniProt Q9H1U9), the “dose-dependent thermal stabilisation call” value was inactive: 0. Turning to MAP2K7 (UniProt O14733), the “dose-dependent thermal stabilisation call” value was inactive: 0.

For the target MKLN1 (UniProt Q9UL63), the “dose-dependent thermal stabilisation call” value was inactive: 0. On to MATR3 (UniProt P43243), for which the “dose-dependent thermal stabilisation call” value is inactive: 0. In the case of MED4 (UniProt Q9NPJ6), the “dose-dependent thermal stabilisation call” value was inactive: 0. For the target MCM4 (UniProt P33991), the “dose-dependent thermal stabilisation call” value was inactive: 0.

For MRPL52 (UniProt Q86TS9), the “dose-dependent thermal stabilisation call” value was inactive: 0.

For the target MRPL45 (UniProt Q9BRJ2), the “dose-dependent thermal stabilisation call” value was inactive: 0. On to MAPK8 (UniProt P45983), for which the “dose-dependent thermal stabilisation call” value is inactive: 0. As for METTL1 (UniProt Q9UBP6), the “dose-dependent thermal stabilisation call” value was inactive: 0.

Regarding MND1 (UniProt Q9BWT6), the “dose-dependent thermal stabilisation call” value is inactive: 0.

For MEMO1 (UniProt Q9Y316), the “dose-dependent thermal stabilisation call” value was inactive: 0. In the case of MBD2 (UniProt Q9UBB5), the “dose-dependent thermal stabilisation call” value was inactive: 0. As to MAN2C1 (UniProt Q9NTJ4), the “dose-dependent thermal stabilisation call” value is inactive: 0. Take MRPL41 (UniProt Q8IXM3): the “dose-dependent thermal stabilisation call” value is inactive: 0. Under MRPS18C (UniProt Q9Y3D5) stands inactive: 0; under MAX (UniProt P61244), inactive: 0. Under MARCH6 (UniProt O60337) stands inactive: 0; under MELK (UniProt Q14680), inactive: 0; under METAP1 (UniProt P53582), inactive: 0.

Turning to MLYCD (UniProt O95822), the “dose-dependent thermal stabilisation call” value is inactive: 0. Turning to MFSD6 (UniProt Q6ZSS7), the “dose-dependent thermal stabilisation call” value is inactive: 0. Turning to MAP1LC3B2 (UniProt A6NCE7), the “dose-dependent thermal stabilisation call” value was inactive: 0.

Turning to METTL10 (UniProt Q5JPI9), the “dose-dependent thermal stabilisation call” value is inactive: 0. The figure for MLL (UniProt Q03164) is inactive: 0; for MRPL21 (UniProt Q7Z2W9) it is inactive: 0; for MED17 (UniProt Q9NVC6) it is inactive: 0. In the case of MKI67IP (UniProt Q9BYG3), the “dose-dependent thermal stabilisation call” value was inactive: 0. On to MAP3K7IP1 (UniProt Q15750), for which the “dose-dependent thermal stabilisation call” value was inactive: 0. With METTL9 (UniProt Q9H1A3), the “dose-dependent thermal stabilisation call” value is inactive: 0.

As to MFF (UniProt Q9GZY8), the “dose-dependent thermal stabilisation call” value was inactive: 0.

Take MLF1IP (UniProt Q71F23): the “dose-dependent thermal stabilisation call” value is inactive: 0. In the case of MINPP1 (UniProt Q9UNW1), the “dose-dependent thermal stabilisation call” value was inactive: 0.

As for MRPL14 (UniProt Q6P1L8), the “dose-dependent thermal stabilisation call” value is inactive: 0. Consider MICAL3 (UniProt Q7RTP6), for which the “dose-dependent thermal stabilisation call” value is inactive: 0. Regarding MFSD1 (UniProt Q9H3U5), the “dose-dependent thermal stabilisation call” value is inactive: 0. Turning to MRPS26 (UniProt Q9BYN8), the “dose-dependent thermal stabilisation call” value is inactive: 0.

Take MAPKAPK5 (UniProt Q8IW41): the “dose-dependent thermal stabilisation call” value is inactive: 0.

Values taken from the supplement of paper PMC7666118.
